Measurements published in the supplement of paper PMC10849652.
This is one part of the list.

Amino acid sequences for entries named in this document (tags omitted). A change or cut given only in a name is not applied to a line headed by its entry.
UniProt P49754: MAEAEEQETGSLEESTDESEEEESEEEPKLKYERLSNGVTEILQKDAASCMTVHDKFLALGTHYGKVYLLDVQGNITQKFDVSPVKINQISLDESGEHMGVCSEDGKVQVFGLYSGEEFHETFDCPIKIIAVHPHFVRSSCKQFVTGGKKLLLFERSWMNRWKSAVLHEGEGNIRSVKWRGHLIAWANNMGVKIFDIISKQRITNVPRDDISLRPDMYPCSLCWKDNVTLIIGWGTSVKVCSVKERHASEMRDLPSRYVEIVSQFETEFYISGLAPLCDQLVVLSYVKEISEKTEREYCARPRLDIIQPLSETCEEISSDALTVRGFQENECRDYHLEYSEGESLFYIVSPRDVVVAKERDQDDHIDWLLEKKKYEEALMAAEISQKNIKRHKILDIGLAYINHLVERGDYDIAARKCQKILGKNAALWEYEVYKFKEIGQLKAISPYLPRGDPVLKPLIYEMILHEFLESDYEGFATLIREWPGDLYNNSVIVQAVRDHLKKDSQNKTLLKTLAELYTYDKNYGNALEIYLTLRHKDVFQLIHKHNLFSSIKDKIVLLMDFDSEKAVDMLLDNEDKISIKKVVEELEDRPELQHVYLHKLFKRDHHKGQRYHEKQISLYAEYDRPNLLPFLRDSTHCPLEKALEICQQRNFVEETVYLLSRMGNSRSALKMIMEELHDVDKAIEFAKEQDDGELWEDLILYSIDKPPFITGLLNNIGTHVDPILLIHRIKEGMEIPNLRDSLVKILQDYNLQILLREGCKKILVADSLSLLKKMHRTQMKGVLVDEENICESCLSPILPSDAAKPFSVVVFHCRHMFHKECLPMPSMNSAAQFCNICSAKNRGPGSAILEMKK
UniProt Q92558: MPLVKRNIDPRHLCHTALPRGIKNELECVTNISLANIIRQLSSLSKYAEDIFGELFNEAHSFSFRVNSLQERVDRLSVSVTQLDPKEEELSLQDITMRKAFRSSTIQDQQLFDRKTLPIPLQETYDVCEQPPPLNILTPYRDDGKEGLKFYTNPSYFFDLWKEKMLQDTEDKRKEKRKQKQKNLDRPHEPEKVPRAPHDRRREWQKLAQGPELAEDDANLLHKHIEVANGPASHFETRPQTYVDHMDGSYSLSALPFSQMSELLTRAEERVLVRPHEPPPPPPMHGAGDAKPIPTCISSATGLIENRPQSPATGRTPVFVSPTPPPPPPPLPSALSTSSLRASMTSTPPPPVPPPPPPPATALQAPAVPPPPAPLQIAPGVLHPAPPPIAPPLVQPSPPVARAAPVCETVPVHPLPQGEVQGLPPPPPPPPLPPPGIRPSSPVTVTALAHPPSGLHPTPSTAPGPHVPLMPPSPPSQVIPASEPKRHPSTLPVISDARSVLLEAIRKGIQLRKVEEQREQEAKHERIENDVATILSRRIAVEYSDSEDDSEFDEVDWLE
UniProt Q6PJI9: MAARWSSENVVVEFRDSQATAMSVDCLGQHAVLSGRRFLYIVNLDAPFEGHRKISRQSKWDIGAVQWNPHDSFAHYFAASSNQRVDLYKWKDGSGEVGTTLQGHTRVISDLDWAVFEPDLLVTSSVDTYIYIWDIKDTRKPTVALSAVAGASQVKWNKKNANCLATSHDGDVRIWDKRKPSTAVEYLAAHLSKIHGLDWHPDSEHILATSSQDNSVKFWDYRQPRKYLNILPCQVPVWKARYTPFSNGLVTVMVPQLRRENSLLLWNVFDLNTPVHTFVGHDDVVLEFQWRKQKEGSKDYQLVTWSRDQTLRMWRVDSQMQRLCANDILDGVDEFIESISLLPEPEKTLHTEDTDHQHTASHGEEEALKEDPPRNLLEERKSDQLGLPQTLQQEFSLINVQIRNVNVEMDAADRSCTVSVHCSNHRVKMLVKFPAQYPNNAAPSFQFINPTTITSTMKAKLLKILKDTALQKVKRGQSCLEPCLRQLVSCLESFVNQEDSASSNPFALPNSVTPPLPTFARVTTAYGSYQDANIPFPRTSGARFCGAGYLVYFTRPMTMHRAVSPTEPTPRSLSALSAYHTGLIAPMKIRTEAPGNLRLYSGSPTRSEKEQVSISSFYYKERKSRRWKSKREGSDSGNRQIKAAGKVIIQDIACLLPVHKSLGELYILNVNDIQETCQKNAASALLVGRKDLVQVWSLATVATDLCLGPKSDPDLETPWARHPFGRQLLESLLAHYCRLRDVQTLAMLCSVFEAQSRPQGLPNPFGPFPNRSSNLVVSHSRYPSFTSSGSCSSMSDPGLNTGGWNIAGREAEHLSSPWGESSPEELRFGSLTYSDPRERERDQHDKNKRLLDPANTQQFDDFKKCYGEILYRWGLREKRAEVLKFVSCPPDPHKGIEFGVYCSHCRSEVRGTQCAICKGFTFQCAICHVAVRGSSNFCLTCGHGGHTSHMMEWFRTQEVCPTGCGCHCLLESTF
UniProt Q96AJ9: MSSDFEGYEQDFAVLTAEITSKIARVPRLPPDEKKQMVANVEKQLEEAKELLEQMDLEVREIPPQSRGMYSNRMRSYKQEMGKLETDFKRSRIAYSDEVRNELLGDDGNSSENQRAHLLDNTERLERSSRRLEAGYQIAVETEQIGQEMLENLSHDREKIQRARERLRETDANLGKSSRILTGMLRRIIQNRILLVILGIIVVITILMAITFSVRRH
UniProt Q9BTA9: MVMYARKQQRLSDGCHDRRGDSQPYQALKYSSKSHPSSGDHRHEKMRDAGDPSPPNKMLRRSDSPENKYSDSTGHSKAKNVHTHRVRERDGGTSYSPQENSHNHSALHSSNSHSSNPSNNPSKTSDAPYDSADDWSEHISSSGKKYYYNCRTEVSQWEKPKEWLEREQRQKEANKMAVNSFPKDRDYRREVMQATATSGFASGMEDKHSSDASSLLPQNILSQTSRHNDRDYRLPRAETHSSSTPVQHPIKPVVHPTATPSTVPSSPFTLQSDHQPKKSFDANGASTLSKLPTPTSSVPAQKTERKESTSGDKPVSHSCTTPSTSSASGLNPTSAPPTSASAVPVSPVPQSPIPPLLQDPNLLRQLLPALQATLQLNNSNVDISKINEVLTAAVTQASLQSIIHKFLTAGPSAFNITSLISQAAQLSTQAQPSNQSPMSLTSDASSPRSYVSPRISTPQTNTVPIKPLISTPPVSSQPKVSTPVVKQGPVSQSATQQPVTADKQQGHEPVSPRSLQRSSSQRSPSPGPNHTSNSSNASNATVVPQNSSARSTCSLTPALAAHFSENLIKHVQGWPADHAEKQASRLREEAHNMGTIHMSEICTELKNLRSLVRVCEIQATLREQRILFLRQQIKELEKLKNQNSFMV
UniProt Q86Y07: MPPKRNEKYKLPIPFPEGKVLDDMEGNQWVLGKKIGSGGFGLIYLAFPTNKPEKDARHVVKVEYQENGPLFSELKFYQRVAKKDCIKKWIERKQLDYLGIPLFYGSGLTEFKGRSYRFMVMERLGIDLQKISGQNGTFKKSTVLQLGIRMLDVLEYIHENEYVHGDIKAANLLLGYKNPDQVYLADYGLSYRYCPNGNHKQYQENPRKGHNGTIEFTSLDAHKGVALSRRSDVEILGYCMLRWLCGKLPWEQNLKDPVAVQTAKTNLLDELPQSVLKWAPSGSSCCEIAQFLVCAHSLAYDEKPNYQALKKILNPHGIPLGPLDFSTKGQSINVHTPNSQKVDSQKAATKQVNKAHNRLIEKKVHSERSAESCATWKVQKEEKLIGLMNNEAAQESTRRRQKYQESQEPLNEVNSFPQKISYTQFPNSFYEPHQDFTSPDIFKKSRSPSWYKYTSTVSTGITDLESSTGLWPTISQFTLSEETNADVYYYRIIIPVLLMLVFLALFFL
UniProt Q9BQA1, whole entry, looked up: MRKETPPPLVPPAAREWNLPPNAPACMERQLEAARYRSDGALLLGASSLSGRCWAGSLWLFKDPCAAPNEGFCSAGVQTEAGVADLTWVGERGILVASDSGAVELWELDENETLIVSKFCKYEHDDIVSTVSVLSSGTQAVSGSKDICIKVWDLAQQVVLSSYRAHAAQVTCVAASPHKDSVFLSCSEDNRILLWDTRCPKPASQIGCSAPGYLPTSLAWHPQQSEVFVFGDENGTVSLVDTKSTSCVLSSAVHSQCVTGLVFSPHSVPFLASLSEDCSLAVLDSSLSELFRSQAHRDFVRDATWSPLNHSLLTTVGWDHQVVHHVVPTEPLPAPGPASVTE
UniProt Q8N2E2: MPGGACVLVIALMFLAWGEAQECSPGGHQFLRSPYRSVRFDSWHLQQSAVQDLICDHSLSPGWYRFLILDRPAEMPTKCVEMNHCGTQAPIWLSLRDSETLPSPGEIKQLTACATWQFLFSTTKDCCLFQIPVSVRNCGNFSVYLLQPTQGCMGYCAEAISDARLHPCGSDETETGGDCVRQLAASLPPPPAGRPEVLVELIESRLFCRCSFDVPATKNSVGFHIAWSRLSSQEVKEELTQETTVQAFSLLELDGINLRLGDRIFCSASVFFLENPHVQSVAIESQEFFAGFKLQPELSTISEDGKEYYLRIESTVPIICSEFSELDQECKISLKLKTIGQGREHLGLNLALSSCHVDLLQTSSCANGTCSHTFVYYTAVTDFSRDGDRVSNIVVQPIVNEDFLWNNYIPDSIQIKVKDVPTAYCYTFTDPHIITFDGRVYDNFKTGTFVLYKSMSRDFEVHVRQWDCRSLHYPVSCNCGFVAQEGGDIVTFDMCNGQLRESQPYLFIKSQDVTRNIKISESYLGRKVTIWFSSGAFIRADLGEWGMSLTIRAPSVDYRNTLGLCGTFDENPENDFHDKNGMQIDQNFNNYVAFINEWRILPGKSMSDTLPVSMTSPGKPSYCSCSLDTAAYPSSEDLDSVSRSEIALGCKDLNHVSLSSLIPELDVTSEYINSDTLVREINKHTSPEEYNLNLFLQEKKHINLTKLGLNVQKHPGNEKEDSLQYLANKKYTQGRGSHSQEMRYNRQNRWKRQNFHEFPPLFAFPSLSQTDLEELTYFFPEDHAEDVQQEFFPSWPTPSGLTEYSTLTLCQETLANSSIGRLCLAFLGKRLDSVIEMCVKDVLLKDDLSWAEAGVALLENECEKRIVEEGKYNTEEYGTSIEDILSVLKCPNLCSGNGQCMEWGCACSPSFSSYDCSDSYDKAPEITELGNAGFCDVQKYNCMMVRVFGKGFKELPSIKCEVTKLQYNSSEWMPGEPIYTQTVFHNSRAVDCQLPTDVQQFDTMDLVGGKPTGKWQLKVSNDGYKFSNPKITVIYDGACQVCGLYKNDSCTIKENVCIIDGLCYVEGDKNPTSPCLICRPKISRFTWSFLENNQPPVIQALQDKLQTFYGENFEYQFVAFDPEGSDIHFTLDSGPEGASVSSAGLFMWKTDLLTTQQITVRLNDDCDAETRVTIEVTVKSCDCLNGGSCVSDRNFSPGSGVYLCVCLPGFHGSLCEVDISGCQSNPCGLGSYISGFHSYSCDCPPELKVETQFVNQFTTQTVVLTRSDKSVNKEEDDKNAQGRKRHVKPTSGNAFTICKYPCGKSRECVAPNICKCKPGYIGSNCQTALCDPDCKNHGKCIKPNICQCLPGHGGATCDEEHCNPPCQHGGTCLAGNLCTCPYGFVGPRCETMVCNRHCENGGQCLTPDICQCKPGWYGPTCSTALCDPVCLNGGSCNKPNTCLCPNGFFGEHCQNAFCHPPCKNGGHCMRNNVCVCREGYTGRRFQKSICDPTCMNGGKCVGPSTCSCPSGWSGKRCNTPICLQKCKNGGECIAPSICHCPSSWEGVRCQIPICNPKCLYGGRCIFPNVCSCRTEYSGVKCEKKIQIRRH
UniProt Q3ZAQ7: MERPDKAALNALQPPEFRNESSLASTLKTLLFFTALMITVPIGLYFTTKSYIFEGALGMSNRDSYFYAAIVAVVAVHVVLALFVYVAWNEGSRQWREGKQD
UniProt Q9Y2I8: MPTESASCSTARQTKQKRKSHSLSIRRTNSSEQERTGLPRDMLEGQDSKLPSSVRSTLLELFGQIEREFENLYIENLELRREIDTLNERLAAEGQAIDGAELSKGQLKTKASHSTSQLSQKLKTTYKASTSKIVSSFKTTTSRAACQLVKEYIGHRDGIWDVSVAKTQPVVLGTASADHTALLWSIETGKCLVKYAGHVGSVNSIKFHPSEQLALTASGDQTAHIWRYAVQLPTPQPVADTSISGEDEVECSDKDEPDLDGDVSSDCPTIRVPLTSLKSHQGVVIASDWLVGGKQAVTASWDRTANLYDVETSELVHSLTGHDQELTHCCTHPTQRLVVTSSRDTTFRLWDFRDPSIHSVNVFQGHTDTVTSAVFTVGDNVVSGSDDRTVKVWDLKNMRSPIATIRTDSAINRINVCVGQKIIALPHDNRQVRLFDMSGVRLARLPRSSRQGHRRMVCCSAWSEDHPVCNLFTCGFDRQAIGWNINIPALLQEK
UniProt Q9H9H4: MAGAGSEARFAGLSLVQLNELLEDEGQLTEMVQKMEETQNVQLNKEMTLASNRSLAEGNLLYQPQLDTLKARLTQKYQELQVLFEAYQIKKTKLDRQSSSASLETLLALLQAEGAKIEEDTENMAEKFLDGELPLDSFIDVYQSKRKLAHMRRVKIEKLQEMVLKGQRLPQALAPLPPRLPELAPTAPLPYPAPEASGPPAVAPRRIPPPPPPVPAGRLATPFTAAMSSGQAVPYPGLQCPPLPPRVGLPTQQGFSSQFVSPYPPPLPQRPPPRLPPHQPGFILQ

Assays:
Test in all cases: log2 fold change, soluble protein after heating vs DMSO (PISA); higher = thermal stabilisation; K562 lysate, 10 uM; active = over 0.2 and 3.5 SD of the protein, either way, in both replicates (recomputed)
[1] = compound: CN1CC[C@H](c2c(O)cc(O)c3c(=O)cc(-c4ccccc4Cl)oc23)[C@H](O)C1 [alvocidib]
Summary of the method: (§1)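 Log-two fold change in thermal stability relative to solvent controls is reported from duplicates. For each sample, crude K562 extract from dounce-homogenised pellets in PBS pH 7.4 with 1 mM MgCl2, at 1 mg/mL protein, was treated with 10 μM compound for 30 min. Aliquots heated for 3 min across 48°C-58°C were pooled, brought to 0.5% NP-40 at 4°C and cleared at 21,000xg for 90 min. The supernatant was quantified by TMTpro 16plex LC-MS/MS with channel sums equalised.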

[2] = compound: CN1CCc2c(c3ccccc3n2Cc2ccc(C(=O)NO)cc2)C1 [Tubastatin A]
Summary of the method: as §1

[3] = compound: CNC(=O)C1=CC=CC=C1NC2=NC(=NC=C2Cl)NC3=C(C=C(C=C3)N4CCOCC4)OC
Summary of the method: as §1

[4] = compound: CNC(=O)c1ccc(Nc2ncc(C(F)(F)F)c(NCc3nccnc3N(C)S(C)(=O)=O)n2)cc1 [defactinib]
Summary of the method: as §1

[5] = compound: CNc1nc(-c2ccc3c(N)n[nH]c3c2)cc(N2C[C@@H](C(=O)NC3CCCCC3)CC[C@H]2C)n1
Summary of the method: as §1

[6] = compound: COC(=O)N[C@@H](C)CNc1nccc(-c2cn(C(C)C)nc2-c2cc(Cl)cc(NS(C)(=O)=O)c2F)n1 [encorafenib]
Summary of the method: as §1

[7] = compound: COC(=O)[C@H](CCSC)NC(=O)C1=C(C=C(C=C1)NC[C@H](CS)N)C2=CC=CC=C2
Summary of the method: as §1

[8] = compound: COc1cc(Nc2ncc3c(n2)-c2ccc(Cl)cc2C(c2c(F)cccc2OC)=NC3)ccc1C(=O)O [alisertib]
Summary of the method: as §1

[9] = compound: COc1cc2nc(-c3cc(F)ccc3O)nc(N[C@@H]3CNC[C@H]3C(C)(C)O)c2cc1OC
Summary of the method: as §1

[10] = compound: COc1cc2ncnc(Nc3ccc(F)c(Cl)c3)c2cc1OCCCN1CCOCC1 [gefitinib]
Summary of the method: as §1

Measured: log2 fold change

VPS41 (UniProt P49754)
inactive: [1] 0.068 | [2] -0.128 | [3] 0.03 | [4] 0.006 | [5] -0.055 | [6] 0.019 | [7] -0.072 | [8] -0.043 | [9] 0.006 | [10] -0.004

WASF1 (UniProt Q92558)
inactive: [1] -0.038 | [2] -0.002 | [3] -0.026 | [4] 0.012 | [5] -0.071 | [6] 0.054 | [7] 0.038 | [8] -0.072 | [9] -0.024 | [10] -0.075

WDR89 (UniProt Q96FK6)
inactive: [1] -0.059 | [2] 0.039 | [3] -0.005 | [4] 0.034 | [5] 0.012 | [6] 0.07 | [7] -0.084 | [8] -0.069 | [9] 0.054 | [10] -0.163

VRK3 (UniProt Q8IV63)
inactive: [1] 0.008 | [2] -0.028 | [3] -0.041 | [4] -0.008 | [5] 0.051 | [6] 0.007 | [7] -0.015 | [8] -0.025 | [9] -0.167 | [10] 0.001

WDR44 (UniProt Q5JSH3)
inactive: [1] -0.02 | [2] 0.047 | [3] 0.01 | [4] -0.013 | [5] 0.021 | [6] -0.001 | [7] -0.009 | [8] 0.004 | [9] 0.004 | [10] 0.011

WDR59 (UniProt Q6PJI9)
inactive: [1] -0.028 | [2] -0.098 | [3] -0.027 | [4] 0.018 | [5] -0.044 | [6] 0.004 | [7] 0.197 | [8] 0.028 | [9] -0.008 | [10] -0.09

VTI1A (UniProt Q96AJ9)
inactive: [1] -0.023 | [2] 0.023 | [3] 0.001 | [4] -0.196 | [5] -0.057 | [6] 0.016 | [7] -0.087 | [8] -0.06 | [9] 0.046 | [10] 0.012

VPS72 (UniProt Q15906)
inactive: [1] 0 | [2] 0.028 | [3] 0.041 | [4] -0.078 | [5] -0.02 | [6] -0.016 | [7] -0.134 | [8] -0.058 | [9] -0.017 | [10] -0.108

WAC (UniProt Q9BTA9)
inactive: [1] -0.008 | [2] -0.035 | [3] 0.068 | [4] 0.013 | [5] 0.007 | [6] -0.006 | [7] 0.118 | [8] -0.019 | [9] -0.01 | [10] 0.009

WDR81 (UniProt Q562E7)
inactive: [1] 0.002 | [2] -0.078 | [3] 0.029 | [4] 0.049 | [5] -0.054 | [6] 0.024 | [7] 0.055 | [8] 0.027 | [9] 0.043 | [10] -0.054

WDR7 (UniProt Q9Y4E6)
inactive: [1] -0.008 | [2] 0.008 | [3] 0 | [4] -0.025 | [5] 0.026 | [6] 0.092 | [7] -0.055 | [8] -0.007 | [9] -0.01 | [10] -0.025

VPS13A (UniProt Q96RL7)
inactive: [1] -0.041 | [2] 0.037 | [3] 0.037 | [4] 0.051 | [5] -0.001 | [6] 0.181 | [7] -0.064 | [8] 0.042 | [9] 0.104 | [10] 0.069

VPS53 isoform 4 (UniProt Q5VIR6)
inactive: [1] -0.017 | [2] -0.034 | [3] 0.012 | [4] 0.018 | [5] -0.014 | [6] 0.014 | [7] -0.008 | [8] -0.041 | [9] -0.006 | [10] 0.012

2 records drawn at random from the list so far:
VPS41 (UniProt P49754)
inactive: [1] 0.068 | [2] -0.128 | [3] 0.03 | [4] 0.006 | [5] -0.055 | [6] 0.019 | [7] -0.072 | [8] -0.043 | [9] 0.006 | [10] -0.004

WDR59 (UniProt Q6PJI9)
inactive: [1] -0.028 | [2] -0.098 | [3] -0.027 | [4] 0.018 | [5] -0.044 | [6] 0.004 | [7] 0.197 | [8] 0.028 | [9] -0.008 | [10] -0.09

(cont.)

WDR13 (UniProt Q9H1Z4)
inactive: [1] 0.003 | [2] 0.013 | [3] 0.013 | [4] 0.023 | [5] -0.034 | [6] 0.029 | [7] -0.072 | [8] 0.04 | [9] -0.054 | [10] 0.048

VPS26B (UniProt Q4G0F5)
inactive: [1] -0.036 | [2] -0.011 | [3] -0.035 | [4] -0.001 | [5] -0.021 | [6] 0.034 | [7] -0.027 | [8] -0.01 | [9] 0.023 | [10] -0.005

WDR74 (UniProt Q6RFH5)
inactive: [1] 0.004 | [2] -0.023 | [3] 0.025 | [4] -0.031 | [5] -0.034 | [6] 0.035 | [7] -0.016 | [8] 0 | [9] -0.072 | [10] -0.002

WIPI2 (UniProt Q9Y4P8)
inactive: [1] -0.036 | [2] 0.005 | [3] -0.007 | [4] 0.036 | [5] -0.051 | [6] 0.029 | [7] 0.049 | [8] -0.033 | [9] -0.012 | [10] -0.027

WRAP73 (UniProt Q9P2S5)
inactive: [1] -0.005 | [2] 0.015 | [3] -0.041 | [4] 0.025 | [5] -0.138 | [6] 0 | [7] -0.107 | [8] 0.086 | [9] 0.006 | [10] 0.064

VPS50 (UniProt Q96JG6)
inactive: [1] 0.027 | [2] -0.026 | [3] -0.012 | [4] 0.008 | [5] -0.032 | [6] 0.029 | [7] 0.038 | [8] -0.025 | [9] 0.025 | [10] 0.004

WDR24 (UniProt Q96S15)
inactive: [1] -0.001 | [2] -0.096 | [3] -0.032 | [4] 0.053 | [5] -0.054 | [6] 0.022 | [7] 0.125 | [8] -0.02 | [9] 0.021 | [10] -0.008

WBP11 (UniProt Q9Y2W2)
inactive: [1] -0.005 | [2] 0.019 | [3] 0.007 | [4] 0.01 | [5] 0.02 | [6] 0.027 | [7] 0.016 | [8] 0.027 | [9] -0.032 | [10] -0.01

WDR43 (UniProt Q15061)
inactive: [1] -0.009 | [2] -0.022 | [3] 0.028 | [4] 0.006 | [5] 0.015 | [6] 0.015 | [7] -0.052 | [8] -0.004 | [9] -0.012 | [10] -0.064

VRK2 (UniProt Q86Y07)
inactive: [2] -0.017 | [3] 0.067 | [4] 0.156 | [5] -0.044 | [6] -0.068 | [7] 0.032 | [8] -0.033 | [9] 0.008 | [10] -0.08
active: [1] 0.503

WDR77 (UniProt Q9BQA1)
active: [1] 0.242
inactive: [2] 0.004 | [3] 0.002 | [4] -0.012 | [5] 0.012 | [6] 0.055 | [7] -0.07 | [8] -0.031 | [9] -0.024 | [10] -0.003

VWDE (UniProt Q8N2E2)
inactive: [1] -0.037 | [2] 0.048 | [3] -0.046 | [4] 0.064 | [5] 0.055 | [6] 0.013 | [7] -0.047 | [8] 0.006 | [9] 0.07 | [10] 0.001

WDR41 (UniProt Q9HAD4)
inactive: [1] -0.061 | [2] -0.14 | [3] 0.021 | [4] -0.044 | [5] 0.017 | [6] 0.081 | [7] -0.121 | [8] 0.033 | [9] -0.047 | [10] 0.083

VMA21 (UniProt Q3ZAQ7)
inactive: [1] 0.068 | [2] -0.069 | [3] -0.013 | [4] 0.124 | [5] -0.04 | [6] 0.034 | [7] -0.094 | [8] 0.109 | [9] -0.09 | [10] -0.164

WDR37 isoform 2 (UniProt Q9Y2I8)
inactive: [1] 0.074 | [2] -0.017 | [3] 0.014 | [4] -0.021 | [5] 0.066 | [6] 0 | [7] 0.054 | [8] -0.027 | [9] 0.074 | [10] 0.026

VPS37B (UniProt Q9H9H4)
inactive: [1] 0.025 | [2] -0.034 | [3] -0.047 | [4] 0.052 | [5] 0.024 | [6] -0.014 | [7] -0.053 | [8] -0.019 | [9] -0.003 | [10] -0.071

WNK1 isoform 7 (UniProt Q9H4A3)
inactive: [1] 0.012 | [2] -0.005 | [3] 0.017 | [4] -0.012 | [5] -0.025 | [6] 0.015 | [7] 0.027 | [8] 0.022 | [9] 0.022 | [10] -0.002
